According to publication PMC10714642:
Results are given in words; binding and its absence hold for the method and conditions named. In cells and extracts the contact can be indirect. Some entries that bind do so weakly or less than the wild type.

Chains of the proteins cited; added tags and fusions are not shown.
UniProt Q15208: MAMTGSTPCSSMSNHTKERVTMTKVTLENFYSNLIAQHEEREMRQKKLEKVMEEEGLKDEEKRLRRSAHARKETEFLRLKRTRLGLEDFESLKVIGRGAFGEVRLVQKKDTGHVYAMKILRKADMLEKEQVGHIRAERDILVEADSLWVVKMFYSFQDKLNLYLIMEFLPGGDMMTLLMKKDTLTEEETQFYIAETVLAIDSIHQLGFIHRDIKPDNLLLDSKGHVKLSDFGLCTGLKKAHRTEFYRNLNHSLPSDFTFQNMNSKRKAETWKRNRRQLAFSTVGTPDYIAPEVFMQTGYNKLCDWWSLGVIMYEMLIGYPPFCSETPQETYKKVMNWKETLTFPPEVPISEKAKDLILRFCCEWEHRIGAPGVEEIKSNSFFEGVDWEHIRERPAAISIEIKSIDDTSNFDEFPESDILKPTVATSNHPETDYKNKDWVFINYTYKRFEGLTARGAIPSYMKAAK

Molecular target: T1, cytoplasmic activation/proliferation-associated protein-1 (Caprin-1) (human (Bxpc-3 and Panc-1 cells)) (UniProt Q14444)
T1 sequence: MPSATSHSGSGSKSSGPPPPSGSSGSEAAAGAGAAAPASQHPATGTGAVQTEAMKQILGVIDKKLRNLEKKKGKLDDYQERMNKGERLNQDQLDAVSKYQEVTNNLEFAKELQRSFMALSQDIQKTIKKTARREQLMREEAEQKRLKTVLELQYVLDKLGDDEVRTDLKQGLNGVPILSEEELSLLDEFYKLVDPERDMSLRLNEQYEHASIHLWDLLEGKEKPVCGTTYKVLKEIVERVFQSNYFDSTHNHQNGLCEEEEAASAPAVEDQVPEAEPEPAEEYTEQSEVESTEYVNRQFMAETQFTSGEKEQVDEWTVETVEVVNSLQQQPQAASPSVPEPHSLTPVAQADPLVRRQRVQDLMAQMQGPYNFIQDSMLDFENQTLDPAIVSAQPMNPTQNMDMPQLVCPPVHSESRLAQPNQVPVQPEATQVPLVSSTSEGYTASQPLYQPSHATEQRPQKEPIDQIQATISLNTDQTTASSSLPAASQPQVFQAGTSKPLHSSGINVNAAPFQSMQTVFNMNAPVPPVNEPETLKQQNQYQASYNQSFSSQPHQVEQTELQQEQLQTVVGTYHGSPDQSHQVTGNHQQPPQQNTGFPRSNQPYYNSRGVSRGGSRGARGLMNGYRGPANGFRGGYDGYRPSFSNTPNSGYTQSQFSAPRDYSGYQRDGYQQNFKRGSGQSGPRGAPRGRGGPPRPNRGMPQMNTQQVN
Assay: co-IP; Co-IP in Bxpc-3 and Panc-1 pancreatic cancer cell lines, detected by blot; which protein was precipitated is not told in the text shown

Question: With “serine/threonine kinase 38 (STK38) (from UniProt Q15208 1-465)” as the substance, how does the binding read?
Answer: binds
